PubChem BioAssay AID1224826 | NIAID – 2016
In all, the deposit lists about 17,000 reagents; this is an unselected part. About 1,110 of all reagents (6.6%) were called active. 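Active means lowered or raised reporter signal; replicate intensities are raw and not normalised per plate.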 Further read-outs or replicates are left out here. No sequences are given here.

Purpose: 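Knock-downs that raise or lower Tnf reporter signal after endotoxin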 (primary screen)
Cells: RAW264.7 G9 macrophages from mouse bearing reporters for p65 (GFP) and the Tnf promoter (mCherry)
Reagent: siRNA pool against mouse genes, 100 nM
Duration: 16 h of LPS stimulation, after 2 days of siRNA transfection
Conditions: bacterial lipopolysaccharide (Salmonella minnesota R595), 10 ng/ml
Measurement: 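Nuclear mCherry signal of the Tnf promoter reporter measured by imaging after background removal, scaled to each plate median and turned into robust z-scores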
Reading the numbers: Tnf reporter robust z-score: higher = stronger Tnf promoter reporter signal after LPS
Call rule: 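a well counts as active at a score of -1.3 or below (Tlr4 knock-down control median) or above 3 (raised signal); controls and wells holding fewer than 50 cells are excluded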
Calls: active = Tnf reporter clearly lowered or raised; inactive = no clear change in Tnf reporter

For Pth2r, what was measured?
Tnf reporter robust z-score: 0.43; fewer than 50 cells in well: enough cells in well; outcome: inactive

With Sdhd, how do the results read?
Tnf reporter robust z-score: 0.54; fewer than 50 cells in well: enough cells in well; outcome: inactive

With Or12k7, how do the results read?
Tnf reporter robust z-score: -0.53; fewer than 50 cells in well: enough cells in well; outcome: inactive

With Mup2, how do the results read?
Tnf reporter robust z-score: -0.62; fewer than 50 cells in well: enough cells in well; outcome: inactive

How did the screen score Dnajb5?
Tnf reporter robust z-score: 0.54; fewer than 50 cells in well: enough cells in well; outcome: inactive

2 entries from above in another layout.
| gene knocked down | Tnf reporter robust z-score | fewer than 50 cells in well | outcome |
| --- | --- | --- | --- |
| Pth2r | 0.43 | enough cells in well | inactive |
| Sdhd | 0.54 | enough cells in well | inactive |

More entries:
What did the screen give for Ndufb7?
Tnf reporter robust z-score: -0.21; fewer than 50 cells in well: enough cells in well; outcome: inactive

With Hnrnpa1, how do the results read?
Tnf reporter robust z-score: -1.86; fewer than 50 cells in well: enough cells in well; outcome: active

What did the screen give for Rpl8?
fewer than 50 cells in well: fewer than 50 cells per well; well left out of calls; outcome: inactive

With Luc7l, how do the results read?
Tnf reporter robust z-score: 0.2; fewer than 50 cells in well: enough cells in well; outcome: inactive

What is on record for Dll4?
Tnf reporter robust z-score: 0.83; fewer than 50 cells in well: enough cells in well; outcome: inactive

How did the screen score Usp36?
Tnf reporter robust z-score: -0.13; fewer than 50 cells in well: enough cells in well; outcome: inactive

With Or8b12i, what was measured?
Tnf reporter robust z-score: -1.13; fewer than 50 cells in well: enough cells in well; outcome: inactive
